According to patent US20240199696A1, “AGENTS FOR MANUFACTURE OF CO-ASSEMBLING PEPTIDES” (University of Florida Research Foundation, Incorporated, priority 2021, published 2024):
Some entries repeat one wording, which the source may state once for all of them.

Assay: In vitro particle formation with crowding agents, inverted fluorescence microscopy
Assay type: physicochemical
Conditions: 30 μM CATCH(4+) and 30 μM CATCH(6−)-GFP, crowder 20 wt %, 15 minutes

Compound	particle formation by crowding agent
C[C@H](CCC(=O)NCCC[N+](C)(C)CCCS(=O)(=O)[O-])[C@H]1CC[C@H]2[C@@H]3[C@H](O)C[C@@H]4C[C@H](O)CC[C@]4(C)[C@H]3C[C@H](O)[C@]12C [CHAPS, (3-((3-cholamidopropyl)dimethylammonio)-1-propanesulfonate)]	unsuccessful in inducing particle formation
CCCCCCCCCCCCOS(=O)(=O)[O-].[Na+] [SDS, sodium dodecylsulfate]	unsuccessful in inducing particle formation
C[C@H](CCC(=O)[O-])[C@H]1CC[C@H]2[C@@H]3CC[C@@H]4C[C@H](O)CC[C@]4(C)[C@H]3C[C@H](O)[C@]12C.[Na+] [deoxycholate, deoxycholate sodium]	unsuccessful in inducing particle formation
Polyoxyethylene (20) sorbitan monolaurate [Tween 20]	induce particle formation
Polyoxyethylene (20) sorbitan monooleate [Tween 80]	induce particle formation
benzalkonium chloride	unsuccessful in inducing particle formation

Same assay, conditions: CATCH(4+) with CATCH(6−)-GFP, 15 minutes

Compound	effect of increasing concentration on particle size
Ac-QQKFKFKFKQQ-Am (N-acetyl; C-amide; CATCH (4+)) [CATCH(4+)]	increased particle size

Same assay, conditions: combined with CATCH(6−)-GFP and Tween 20, 15 minutes

Compound	particle formation by peptide
Ac-EQEFEFEFEQE-Am (N-acetyl; C-amide; CATCH (6-)) [CATCH(6−)]	not able induce particle formation
Ac-QQKFKFKFKQQ-Am (N-acetyl; C-amide; CATCH (4+)) [CATCH(4+)]	successfully induced particle formation
Ac-QQKPKPKPKQQ-Am (N-acetyl; C-amide; a mCATCH(+) (a mutant CATCH(+) peptide)) [mCATCH (4+)]	not able induce particle formation
KQKFKFKFKQK (CATCH (6+))	successfully induced particle formation
